The list shows a part of the results. Shown are side measurements of this screen, not its main read-out; they come without a call. The list favours compounds with an active or inconclusive main result. The note in brackets gives the kind of curve behind each potency; many fits are weak.
Assay: qHTS Assay to Find Inhibitors of Chronic Active B-Cell Receptor Signaling
Settings: ABC-DLBCL IkBa-CBG/CBR reporter, luminescence ratio (green luciferase fused to IkBa over red control in TMD8 lymphoma cells), 4 h
Procedure, shortened: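 Concentration-response series (up to 46 uM) were applied to TMD8 dual-reporter cells for 4 h at 37C with doxycycline. Green/red ratio, after filter-overlap correction, defined %Activity; red signal alone was normalised to basal cells and zero luminescence.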

[1] = measured here: CBR red luminescence, cell number
[2] = measured here: IkBa-CBG green luminescence

| SMILES | AC50 [1] | AC50 [2] |
| --- | --- | --- |
| O=C(N1CCOCC1)N1CCN(c2nc(-c3ccccc3)cs2)CC1 | 0.631 µM [rising, partial curve, poor fit] | – |
| C=CCNc1nnc(SCC(=O)N2CCCCC2)c2ccccc12 | 28.2 µM [rising, single point] | – |
| CCn1nc(C)c(/C=N/NC(=O)Cn2cncn2)c1C | 4.47 µM [falling, partial curve, poor fit] | – |
| COC(=O)c1c(S(=O)(=O)NCc2ccccc2)sc(C(=O)O)c1C | 20.6 µM [falling, single point] | – |
| CCOC(=O)C(=CNc1cccc(C)n1)C(=O)OCC | 11.2 µM [falling, partial curve] | – |
| O=C(Nc1ccc(Nc2ccncc2)cc1)c1ccc(Nc2ccnc3ccc([N+](=O)[O-])cc23)cc1[N+](=O)[O-] | 3.98 µM [falling, full curve, poor fit] | – |
| C/C=C(/C)C(=O)OC1Cc2c(ccc3ccc(=O)oc23)OC1(C)C (stereo unspecified) | 11.2 µM [falling, partial curve] | – |
| O=C(CCn1nnc2ccccc21)OCC(=O)c1ccc([N+](=O)[O-])cc1 | 0.112 µM [falling, full curve, poor fit] | – |
| CS/C(=N\S(=O)(=O)c1cccs1)Nc1ccc(F)cc1 | 20.6 µM [falling, single point] | – |
| Cc1ccc(-c2nc3scc(CCNS(=O)(=O)c4ccc(Oc5ccccc5)cc4)n3n2)cc1 | – | 11.2 µM [falling, partial curve, poor fit] |
| Cc1cccc(/C(N)=N/OC(=O)N2c3ccccc3Sc3ccccc32)c1 | 1.12 µM [rising, full curve, poor fit] | – |
| Cc1ccc(C)c(OC2=NS(=O)(=O)c3ccccc32)c1 | 0.112 µM [rising, full curve, poor fit] | – |
| COc1ccc(NC(=O)COC(=O)CC2CCCC2)cc1 | 0.517 µM [rising, full curve] | – |
| N#Cc1ccccc1NC(=O)CN1C(=O)NC(Cc2c[nH]c3ccccc23)C1=O (stereo unspecified) | 10.3 µM [falling, partial curve, poor fit] | – |
| O=C(NNC(=O)c1ccccc1Br)c1ccc2nc[nH]c2c1 | 35.5 µM [falling, single point] | – |
| COc1ccc(NC(=O)c2cc3ccccc3o/c2=N\NS(=O)(=O)c2ccc(C)cc2)cc1 | 20 µM [falling, partial curve, poor fit] | – |
| CCOc1ccc(S(=O)(=O)Nc2ccc(C(=O)N/N=C(\C)c3ccc(-n4ccnc4)cc3)cc2)cc1 | 0.146 µM [falling, full curve, poor fit] | – |
| CCOC(=O)Nc1sc2c(c1C(=O)OCC)CCC2 | 6.51 µM [rising, partial curve, poor fit] | – |
| CN1CCN(c2nc3c(c(=O)n(C)c(=O)n3C)n2Cc2cccc(Br)c2)CC1 | 35.5 µM [falling, single point] | – |
| Cc1ccc(Sc2ccc(CN3CCCCC3)cc2[N+](=O)[O-])cc1 | 35.5 µM [rising, single point] | – |
| COc1ccc(NC(=O)COc2ccccc2C#N)c(S(=O)(=O)N2CCCCC2)c1 | 8.91 µM [falling, partial curve, poor fit] | – |

Single records, as listed above. Values in the order: AC50 [1]	AC50 [2]
O=C(NNC(=O)c1ccccc1Br)c1ccc2nc[nH]c2c1 as listed: 35.5 µM [falling, single point]	–
C=CCNc1nnc(SCC(=O)N2CCCCC2)c2ccccc12 as listed: 28.2 µM [rising, single point]	–

(next part)

| SMILES | AC50 [1] | AC50 [2] |
| --- | --- | --- |
| C/C(=N\NC(=S)Nc1ccc(C)cc1)c1cccc(N)c1 | – | 12.6 µM [falling, partial curve, poor fit] |
| CC(=O)Nc1cccc(N=NN2CCOCC2)c1 | 3.55 µM [falling, single point] | – |
| COc1ccc(C/C(C)=N/NC(=O)c2cc(C)oc2C)cc1 | 8.2 µM [falling, partial curve] | – |
| O=C(N/N=C/c1ccc(O)cc1)c1cc(C2CC2)[nH]n1 | 35.5 µM [falling, single point] | – |
| COc1ccc(-c2ccc(-c3noc(-c4ccc(OC)c(OC)c4)n3)c(OC)n2)cc1 | 15.8 µM [rising, single point] | – |
| Nc1nc(NCc2ccccc2)nc(-c2ccccc2)n1 | 25.9 µM [falling, single point] | – |
| Cc1ccc(Cn2ccsc2=NC(=O)CCl)cc1 | 7.94 µM [falling, partial curve] | – |
| O=C(CSc1ncnc2sc3c(c12)CCC3)Nc1ccccc1C(=O)O | 1.12 µM [falling, partial curve, poor fit] | – |
| O=C(NC1CCCC1)c1cc(-c2ccccc2Cl)on1 | 12.6 µM [falling, partial curve] | – |
| COc1cc(/C=N/NC(=O)c2cc(C)oc2C)cc(OC)c1OC | 3.98 µM [falling, full curve, poor fit] | 15.8 µM [rising, partial curve, poor fit] |
| O=C(O)c1ccc(Oc2cc(Oc3ccc(C(=O)O)cc3)cc([N+](=O)[O-])c2)cc1 | 1.41 µM [falling, full curve] | – |
| C=CCNC(=O)COc1ccc(Br)cc1Cl | 7.08 µM [rising, partial curve] | – |
| CCCc1ccc(-c2cc(C(=O)NCCc3ccc(S(N)(=O)=O)cc3)c3ccccc3n2)cc1 | 35.5 µM [falling, single point] | – |
| O=C1Nc2ccccc2C1(O)c1ccccc1 (stereo unspecified) | 1.12 µM [rising, full curve, poor fit] | – |
| Cc1ccc([N+](=O)[O-])cc1NC(=O)CCSc1ccc(Cl)cc1 | 29.1 µM [rising, single point] | – |
| O=C(NCC1CCCO1)/C(=C/c1ccc(Cl)cc1)NC(=O)c1ccccc1 (stereo unspecified) | 7.31 µM [rising, partial curve] | – |
| Cc1nc2ccc(NC(=O)COc3ccccc3[N+](=O)[O-])cc2s1 | 0.501 µM [rising, full curve] | – |
| O=C(NCc1ccco1)C(C(=O)c1ccccc1)n1ccccc1=O (stereo unspecified) | 0.631 µM [rising, partial curve, poor fit] | – |
| CC(=O)Nc1ccc2nc(-c3ccco3)[nH]c2c1 | 22.4 µM [falling, single point] | – |
| O=C(c1cccc2ccccc12)N1CCN=C1SCc1ccc([N+](=O)[O-])cc1 | 0.164 µM [rising, full curve, poor fit] | – |
| O=C(Nc1ccc(F)cc1)Nc1nnc(SCC(=O)N2CCCCC2)s1 | 35.5 µM [rising, partial curve, poor fit] | – |

| SMILES | AC50 [1] | AC50 [2] |
| --- | --- | --- |
| N#CCCn1nc(-c2ccccc2)cc1Nc1ccccc1NC(=O)c1cccs1 | 12.6 µM [falling, single point] | – |
| C=CCOc1ccc(C(=O)CC)cc1OC | 25.9 µM [rising, single point] | – |
| Cn1c(=O)[nH]c2nnc(-c3ccc(Cl)c(Cl)c3)nc2c1=O | 0.631 µM [falling, full curve, poor fit] | – |
| O=C(NCC(=O)N1CCN(c2ccccc2)CC1)c1ccccc1 | 8.91 µM [falling, partial curve, poor fit] | – |
| O=C(CSc1nnc(-c2cccs2)n1-c1cccc(Cl)c1)c1cccc2c1OCCO2 | 20.6 µM [rising, partial curve, poor fit] | – |
| O=c1oc2ccccc2c(Nc2cc3ccccc3cc2O)c1[N+](=O)[O-] | 12.6 µM [falling, partial curve] | – |
| Cc1nc2ncnn2c(C)c1Cc1c(Cl)cccc1Cl | 3.26 µM [rising, partial curve, poor fit] | – |
| CN(C)CCN(C(=O)c1ccc(N2C(=O)CCC2=O)cc1)c1nc2cc3c(cc2s1)OCO3 | 17.8 µM [falling, single point] | – |
| CC(C)N(C(=O)CSc1ncnc2sc(-c3ccccc3)cc12)C(C)C | 10.3 µM [rising, single point] | – |
| Cc1ccc2nc(-c3ccc(NC(=O)CN(c4ccccc4C)S(C)(=O)=O)cc3)sc2c1 | 0.00411 µM [rising, full curve, poor fit] | – |
| Cc1cnc([N+](=O)[O-])n1CCOC(=O)NC(=O)c1ccccc1Cl | 35.5 µM [falling, single point] | – |
| O=C(COc1ccc(Cl)cc1)NCCc1ccccn1 | 10 µM [rising, partial curve] | – |
| NS(=O)(=O)c1cccc(NC(=O)COC(=O)CNC(=O)c2ccc(-c3ccccc3)cc2)c1 | 11.6 µM [falling, single point] | – |
| CCOc1ccc(/C=N/NC(=O)c2ccccc2NC(=O)c2ccc(OC)cc2)cc1 | 6.51 µM [falling, partial curve] | – |
| CCOC(=O)N1CCN(S(=O)(=O)c2ccc(C(=O)Nc3nc4ccc(F)cc4s3)cc2)CC1 | 1.26 µM [falling, full curve, poor fit] | – |
| CCOC(=O)c1c2ccc(OCC(=O)NN)cc2n2ccccc12 | 35.5 µM [falling, single point] | 35.5 µM [rising, partial curve, poor fit] |
| Cc1ccc(C(=O)N2CCCC(CCC(=O)N3CCN(c4ccccn4)CC3)C2)s1 (stereo unspecified) | 35.5 µM [falling, single point] | – |
| CCOc1ccccc1NC(=O)CSc1nc2ccccc2nc1N1CCCC1 | 5.62 µM [falling, single point] | – |
| CCOC(=O)C(C)On1c(-c2ccccc2)nc2ccc([N+](=O)[O-])cc21 (stereo unspecified) | 20.6 µM [falling, partial curve] | – |
| COC(=O)c1[nH]c2cccc(Cl)c2c1NC(=O)CN1CCCCC1C (stereo unspecified) | 2.82 µM [rising, partial curve] | – |
| Cc1cc(C)c(NC(=S)NC(NC(=O)c2ccccc2)C(Cl)(Cl)Cl)c(C)c1 (stereo unspecified) | 18.4 µM [falling, partial curve] | 32.6 µM [rising, partial curve, poor fit] |

— PubChem BioAssay AID493014 (National Center for Advancing Translational Sciences (NCATS), 2011)
